This assay concerns the target human CD179b protein (antigen protein expressed from the SRaIgG1Fc vector, human IgG1 Fc fusion) (human) (UniProt P15814). The assay is described as follows: ELISA, plate coated with 1 ug/ml human CD179b protein, hybridoma culture supernatant. For orientation: In an ELISA, binding on a coated surface is turned into a signal by an enzyme label.

Sequences of proteins named here, by UniProt entry; tags and fusion partners are left off. A change or cut given only in a name is not applied to a line headed by its entry.
UniProt P15814: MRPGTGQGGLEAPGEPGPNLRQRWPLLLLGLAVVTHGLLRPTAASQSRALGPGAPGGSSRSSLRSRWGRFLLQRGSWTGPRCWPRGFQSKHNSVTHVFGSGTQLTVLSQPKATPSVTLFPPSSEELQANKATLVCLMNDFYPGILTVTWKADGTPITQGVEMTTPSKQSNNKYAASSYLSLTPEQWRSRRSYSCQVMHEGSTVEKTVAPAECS

No constants are given. Whether binding was seen depends on the method and setting. Some results given as binding are weak or reduced against the parent protein; the word gives no strength.

B1: anti-CD179b monoclonal antibody #8 (antibody, mouse IgG3, V domains shown)
VH: EVQLQQSGPELVKPGASVKMSCKASGYTFTDYYMKWMKQSHGKSLEWIGDINPNNGGTTYNQKFKGKATLTVDKSSSTAYMQLNSLTSEDSAVYYCARDYGYGYFDYWGQGTTLTVSS
VL: DIQMTQSPASLSVSVGETVTITCRASENIYSNLAWYQQKQGKSPQLLVYAATNLADGVPSRFSGSGSGTQYSLKINSLQSEDFGSYYCQHFWGTWTFGGGTTLEIK
Turning to B1, the binding result was “binds”.
